Earlier results on one compound are cited in patent US10179139B2, “Pharmaceutical composition” (CIPLA Limited, priority 2010, dated 2019).

Structures are written as SMILES. Where a name gives a salt, the structure may show the parent alone.

For this series the following is noted: in vivo.

As to `COc1ccc(CC(C)NCC(O)c2ccc(O)c(NC=O)c2)cc1` (racemic) [Formoterol, (±)-2-hydroxy-5-[(1RS)-1-hydroxy-2-[[(1RS)-2-(4-methoxyphenyl)-1methylethyl]-amino]ethyl]formanilide fumarate dihydrate], the onset of action is 1 to 3 min.
